No constants are given. Whether binding was seen depends on the method and setting. In cells and extracts the contact can be indirect. A yes stands for co-enrichment or nearness to the bait. Other partners may have been found.
What was measured:
[1] = target: T1, XPC (human (endogenous in U2OS)) (UniProt Q01831); assay: affinity purification with mass spectrometry; complexes pulled down from solubilized U2OS cell lysates with an anti-endogenous XPC antibody; mass spectrometry
T1 sequence: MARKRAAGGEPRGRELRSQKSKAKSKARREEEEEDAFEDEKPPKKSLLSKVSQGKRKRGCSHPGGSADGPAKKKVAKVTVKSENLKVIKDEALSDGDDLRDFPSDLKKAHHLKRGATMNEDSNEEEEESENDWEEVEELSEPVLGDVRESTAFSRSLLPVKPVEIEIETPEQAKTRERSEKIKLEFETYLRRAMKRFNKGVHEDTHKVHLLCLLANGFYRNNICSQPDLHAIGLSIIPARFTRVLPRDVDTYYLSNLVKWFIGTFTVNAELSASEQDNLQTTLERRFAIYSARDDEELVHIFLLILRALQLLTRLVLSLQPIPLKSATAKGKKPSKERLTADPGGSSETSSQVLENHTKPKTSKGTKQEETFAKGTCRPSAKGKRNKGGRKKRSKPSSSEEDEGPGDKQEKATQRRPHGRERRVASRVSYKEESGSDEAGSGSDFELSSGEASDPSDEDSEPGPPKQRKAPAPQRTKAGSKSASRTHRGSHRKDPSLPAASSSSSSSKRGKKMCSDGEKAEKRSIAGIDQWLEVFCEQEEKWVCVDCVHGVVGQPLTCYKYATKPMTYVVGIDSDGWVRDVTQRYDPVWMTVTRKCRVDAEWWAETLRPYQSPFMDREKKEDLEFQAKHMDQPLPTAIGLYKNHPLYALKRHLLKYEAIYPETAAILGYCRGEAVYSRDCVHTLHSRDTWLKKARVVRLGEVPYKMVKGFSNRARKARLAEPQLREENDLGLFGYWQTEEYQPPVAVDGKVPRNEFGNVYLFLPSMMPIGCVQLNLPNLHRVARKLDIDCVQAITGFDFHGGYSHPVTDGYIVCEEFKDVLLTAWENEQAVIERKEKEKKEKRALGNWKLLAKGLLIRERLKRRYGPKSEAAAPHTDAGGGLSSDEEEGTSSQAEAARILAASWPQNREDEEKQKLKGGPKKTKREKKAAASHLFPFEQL

Sequences of proteins named here, by UniProt entry; tags and fusion partners are left off.
UniProt Q9UBU8: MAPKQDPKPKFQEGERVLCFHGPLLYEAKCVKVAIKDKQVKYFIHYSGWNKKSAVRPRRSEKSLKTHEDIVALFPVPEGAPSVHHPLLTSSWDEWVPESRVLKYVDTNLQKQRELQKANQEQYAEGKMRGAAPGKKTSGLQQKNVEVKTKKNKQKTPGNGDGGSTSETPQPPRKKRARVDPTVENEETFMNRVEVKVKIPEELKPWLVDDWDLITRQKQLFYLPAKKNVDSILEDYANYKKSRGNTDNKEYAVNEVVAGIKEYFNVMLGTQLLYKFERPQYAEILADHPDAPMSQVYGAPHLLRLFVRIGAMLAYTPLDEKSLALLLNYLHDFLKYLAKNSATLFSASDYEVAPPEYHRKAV
UniProt Q9Y5B9: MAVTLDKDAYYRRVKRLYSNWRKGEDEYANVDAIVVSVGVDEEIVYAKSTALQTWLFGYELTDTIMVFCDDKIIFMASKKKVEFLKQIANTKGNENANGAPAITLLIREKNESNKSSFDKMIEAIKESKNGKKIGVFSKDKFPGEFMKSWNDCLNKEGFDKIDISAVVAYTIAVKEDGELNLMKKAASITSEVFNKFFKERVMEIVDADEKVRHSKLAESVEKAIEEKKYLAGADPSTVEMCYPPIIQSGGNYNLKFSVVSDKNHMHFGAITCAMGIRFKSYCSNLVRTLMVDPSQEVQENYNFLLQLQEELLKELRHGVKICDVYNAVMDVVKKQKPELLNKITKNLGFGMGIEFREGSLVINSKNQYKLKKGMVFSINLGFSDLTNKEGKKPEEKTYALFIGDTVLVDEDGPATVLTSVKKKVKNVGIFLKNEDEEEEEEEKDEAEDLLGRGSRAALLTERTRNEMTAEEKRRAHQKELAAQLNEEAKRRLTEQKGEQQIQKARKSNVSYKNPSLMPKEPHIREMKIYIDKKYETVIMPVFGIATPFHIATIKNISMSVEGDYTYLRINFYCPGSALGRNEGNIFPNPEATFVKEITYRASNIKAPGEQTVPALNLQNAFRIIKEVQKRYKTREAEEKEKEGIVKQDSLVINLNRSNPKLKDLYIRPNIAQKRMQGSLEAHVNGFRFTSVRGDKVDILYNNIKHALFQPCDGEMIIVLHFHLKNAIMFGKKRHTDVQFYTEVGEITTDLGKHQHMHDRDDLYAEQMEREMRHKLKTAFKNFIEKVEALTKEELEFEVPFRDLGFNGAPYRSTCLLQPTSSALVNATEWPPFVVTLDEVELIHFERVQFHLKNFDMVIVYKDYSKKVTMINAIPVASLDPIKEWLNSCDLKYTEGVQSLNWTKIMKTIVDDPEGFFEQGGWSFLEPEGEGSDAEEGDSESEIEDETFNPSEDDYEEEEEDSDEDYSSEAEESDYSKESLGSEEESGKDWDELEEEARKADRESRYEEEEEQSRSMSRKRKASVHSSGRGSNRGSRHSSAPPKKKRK

[2] = target: MRG15 (MORF4-Related Gene on chromosome 15) conjugated with the Flag tag (human) (UniProt Q9UBU8); assay: affinity purification with mass spectrometry; anti-Flag M2 affinity gel incubated with 500 µg whole-cell lysate (NETN buffer) of transfected U2OS cells overnight at 4 °C; eluted with 3x Flag peptide; eluates analysed by mass spectrometry

binding [1]: binds
binding [2]: binds
Substance: SPT16 (SuPpressor of Ty 16) (from UniProt Q9Y5B9 1-1047)

Reference: article PMC10314917
